Our source for the log2 fold change values is the supplement of paper PMC10849652.

Sequences of proteins named here, by UniProt entry; tags and fusion partners are left off. A change or cut given only in a name is not applied to a line headed by its entry.
UniProt P54274: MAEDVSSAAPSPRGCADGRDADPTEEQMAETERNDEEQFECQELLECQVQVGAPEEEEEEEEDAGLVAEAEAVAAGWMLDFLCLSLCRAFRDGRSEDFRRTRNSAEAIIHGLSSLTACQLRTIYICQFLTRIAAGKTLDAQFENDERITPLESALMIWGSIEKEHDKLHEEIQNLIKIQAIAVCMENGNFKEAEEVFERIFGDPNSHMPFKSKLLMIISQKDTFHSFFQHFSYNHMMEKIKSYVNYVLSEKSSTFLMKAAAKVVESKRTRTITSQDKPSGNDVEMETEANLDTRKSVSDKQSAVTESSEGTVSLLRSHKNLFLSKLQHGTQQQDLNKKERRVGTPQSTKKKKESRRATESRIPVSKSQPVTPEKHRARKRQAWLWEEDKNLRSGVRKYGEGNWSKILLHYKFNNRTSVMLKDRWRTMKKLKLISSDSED
UniProt Q8IYN2: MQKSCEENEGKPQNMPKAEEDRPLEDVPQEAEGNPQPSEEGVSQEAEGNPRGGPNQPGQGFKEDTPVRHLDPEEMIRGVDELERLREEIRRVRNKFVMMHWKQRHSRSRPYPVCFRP
UniProt Q7Z6L1: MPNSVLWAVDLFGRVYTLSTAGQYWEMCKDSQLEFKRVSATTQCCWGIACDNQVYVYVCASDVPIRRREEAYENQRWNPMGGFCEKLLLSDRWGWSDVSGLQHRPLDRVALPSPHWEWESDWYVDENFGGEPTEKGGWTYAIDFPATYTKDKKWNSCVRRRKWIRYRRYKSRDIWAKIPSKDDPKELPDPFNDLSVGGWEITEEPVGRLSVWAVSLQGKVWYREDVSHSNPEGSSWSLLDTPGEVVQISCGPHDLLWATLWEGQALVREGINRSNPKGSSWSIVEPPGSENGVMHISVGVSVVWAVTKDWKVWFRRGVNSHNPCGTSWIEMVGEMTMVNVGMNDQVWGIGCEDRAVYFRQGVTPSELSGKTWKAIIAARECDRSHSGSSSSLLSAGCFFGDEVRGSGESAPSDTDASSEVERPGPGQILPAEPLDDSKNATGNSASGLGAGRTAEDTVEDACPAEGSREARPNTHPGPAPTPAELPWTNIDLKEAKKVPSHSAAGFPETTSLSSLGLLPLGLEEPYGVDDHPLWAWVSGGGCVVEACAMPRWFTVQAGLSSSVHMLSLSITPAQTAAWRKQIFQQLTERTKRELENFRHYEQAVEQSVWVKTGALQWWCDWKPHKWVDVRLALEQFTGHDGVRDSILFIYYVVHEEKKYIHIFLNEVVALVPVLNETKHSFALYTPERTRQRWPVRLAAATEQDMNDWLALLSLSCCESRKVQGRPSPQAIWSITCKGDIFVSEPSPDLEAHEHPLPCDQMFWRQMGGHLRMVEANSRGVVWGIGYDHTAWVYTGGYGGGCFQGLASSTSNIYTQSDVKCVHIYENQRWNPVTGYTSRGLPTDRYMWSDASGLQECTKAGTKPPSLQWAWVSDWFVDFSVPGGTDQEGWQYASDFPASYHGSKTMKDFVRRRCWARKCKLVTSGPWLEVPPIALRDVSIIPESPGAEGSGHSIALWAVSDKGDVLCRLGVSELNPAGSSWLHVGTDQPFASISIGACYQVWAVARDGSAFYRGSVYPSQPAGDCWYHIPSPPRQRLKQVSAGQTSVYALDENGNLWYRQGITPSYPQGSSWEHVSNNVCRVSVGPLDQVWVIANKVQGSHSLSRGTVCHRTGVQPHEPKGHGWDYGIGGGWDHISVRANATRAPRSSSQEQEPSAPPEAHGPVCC
UniProt Q9UGU0: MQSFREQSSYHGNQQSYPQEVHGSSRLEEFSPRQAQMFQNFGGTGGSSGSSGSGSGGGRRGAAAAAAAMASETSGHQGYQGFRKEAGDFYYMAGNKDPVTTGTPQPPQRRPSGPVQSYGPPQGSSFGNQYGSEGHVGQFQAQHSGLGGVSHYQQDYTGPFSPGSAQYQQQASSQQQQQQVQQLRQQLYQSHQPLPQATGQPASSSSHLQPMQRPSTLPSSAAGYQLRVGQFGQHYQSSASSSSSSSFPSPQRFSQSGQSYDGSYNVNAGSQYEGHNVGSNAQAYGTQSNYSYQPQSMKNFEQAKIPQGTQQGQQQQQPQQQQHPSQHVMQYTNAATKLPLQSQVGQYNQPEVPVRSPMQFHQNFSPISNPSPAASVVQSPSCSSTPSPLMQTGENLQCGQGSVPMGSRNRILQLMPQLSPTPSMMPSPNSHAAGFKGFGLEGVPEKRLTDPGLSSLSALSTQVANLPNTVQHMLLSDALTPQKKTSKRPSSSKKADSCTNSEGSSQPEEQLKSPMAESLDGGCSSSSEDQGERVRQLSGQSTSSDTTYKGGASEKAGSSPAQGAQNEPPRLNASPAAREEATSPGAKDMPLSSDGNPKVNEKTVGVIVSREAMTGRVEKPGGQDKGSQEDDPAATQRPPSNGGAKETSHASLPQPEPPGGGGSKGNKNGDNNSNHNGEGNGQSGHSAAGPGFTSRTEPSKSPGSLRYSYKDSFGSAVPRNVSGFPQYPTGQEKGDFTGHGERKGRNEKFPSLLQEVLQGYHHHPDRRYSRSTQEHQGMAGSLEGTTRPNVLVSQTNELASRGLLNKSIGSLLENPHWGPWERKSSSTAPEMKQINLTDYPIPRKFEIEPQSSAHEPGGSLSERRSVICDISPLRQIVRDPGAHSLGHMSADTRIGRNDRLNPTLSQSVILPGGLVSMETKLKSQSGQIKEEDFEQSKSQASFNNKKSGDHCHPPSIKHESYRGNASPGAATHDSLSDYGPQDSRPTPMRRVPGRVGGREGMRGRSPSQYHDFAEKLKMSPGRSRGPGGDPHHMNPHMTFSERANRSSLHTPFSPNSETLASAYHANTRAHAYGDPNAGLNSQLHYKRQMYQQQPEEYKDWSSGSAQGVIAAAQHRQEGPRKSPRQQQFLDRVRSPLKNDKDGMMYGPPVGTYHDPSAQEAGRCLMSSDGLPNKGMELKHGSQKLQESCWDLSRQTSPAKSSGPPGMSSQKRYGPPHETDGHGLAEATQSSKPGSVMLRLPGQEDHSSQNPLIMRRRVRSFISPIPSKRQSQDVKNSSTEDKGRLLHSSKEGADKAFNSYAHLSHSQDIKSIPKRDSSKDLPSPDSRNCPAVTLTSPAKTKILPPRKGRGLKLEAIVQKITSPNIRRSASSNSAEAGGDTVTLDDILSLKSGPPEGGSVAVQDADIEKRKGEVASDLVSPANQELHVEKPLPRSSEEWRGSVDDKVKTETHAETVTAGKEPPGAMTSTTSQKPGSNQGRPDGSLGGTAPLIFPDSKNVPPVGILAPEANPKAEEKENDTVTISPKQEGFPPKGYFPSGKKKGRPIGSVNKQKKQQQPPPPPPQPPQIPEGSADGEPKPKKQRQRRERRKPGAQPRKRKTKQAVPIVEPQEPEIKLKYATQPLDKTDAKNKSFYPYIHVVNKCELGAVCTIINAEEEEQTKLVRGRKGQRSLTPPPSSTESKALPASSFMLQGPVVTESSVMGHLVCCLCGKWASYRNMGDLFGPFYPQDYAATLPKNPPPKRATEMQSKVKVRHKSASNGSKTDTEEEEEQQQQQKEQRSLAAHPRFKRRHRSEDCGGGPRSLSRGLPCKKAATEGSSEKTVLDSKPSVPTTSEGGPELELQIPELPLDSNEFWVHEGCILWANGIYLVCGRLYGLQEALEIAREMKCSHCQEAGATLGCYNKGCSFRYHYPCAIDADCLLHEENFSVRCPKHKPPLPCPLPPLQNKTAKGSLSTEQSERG
UniProt P20061: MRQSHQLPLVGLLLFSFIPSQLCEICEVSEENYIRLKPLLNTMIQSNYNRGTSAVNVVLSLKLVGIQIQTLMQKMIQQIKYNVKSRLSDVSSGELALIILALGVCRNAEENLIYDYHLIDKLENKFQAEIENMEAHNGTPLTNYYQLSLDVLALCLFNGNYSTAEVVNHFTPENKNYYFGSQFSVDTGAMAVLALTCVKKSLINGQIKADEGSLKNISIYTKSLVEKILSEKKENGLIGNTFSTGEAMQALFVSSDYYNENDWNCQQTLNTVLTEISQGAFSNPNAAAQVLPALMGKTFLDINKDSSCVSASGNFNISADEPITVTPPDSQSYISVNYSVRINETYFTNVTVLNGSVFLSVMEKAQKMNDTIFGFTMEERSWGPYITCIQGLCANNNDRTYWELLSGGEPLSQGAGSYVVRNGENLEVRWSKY
UniProt Q13428: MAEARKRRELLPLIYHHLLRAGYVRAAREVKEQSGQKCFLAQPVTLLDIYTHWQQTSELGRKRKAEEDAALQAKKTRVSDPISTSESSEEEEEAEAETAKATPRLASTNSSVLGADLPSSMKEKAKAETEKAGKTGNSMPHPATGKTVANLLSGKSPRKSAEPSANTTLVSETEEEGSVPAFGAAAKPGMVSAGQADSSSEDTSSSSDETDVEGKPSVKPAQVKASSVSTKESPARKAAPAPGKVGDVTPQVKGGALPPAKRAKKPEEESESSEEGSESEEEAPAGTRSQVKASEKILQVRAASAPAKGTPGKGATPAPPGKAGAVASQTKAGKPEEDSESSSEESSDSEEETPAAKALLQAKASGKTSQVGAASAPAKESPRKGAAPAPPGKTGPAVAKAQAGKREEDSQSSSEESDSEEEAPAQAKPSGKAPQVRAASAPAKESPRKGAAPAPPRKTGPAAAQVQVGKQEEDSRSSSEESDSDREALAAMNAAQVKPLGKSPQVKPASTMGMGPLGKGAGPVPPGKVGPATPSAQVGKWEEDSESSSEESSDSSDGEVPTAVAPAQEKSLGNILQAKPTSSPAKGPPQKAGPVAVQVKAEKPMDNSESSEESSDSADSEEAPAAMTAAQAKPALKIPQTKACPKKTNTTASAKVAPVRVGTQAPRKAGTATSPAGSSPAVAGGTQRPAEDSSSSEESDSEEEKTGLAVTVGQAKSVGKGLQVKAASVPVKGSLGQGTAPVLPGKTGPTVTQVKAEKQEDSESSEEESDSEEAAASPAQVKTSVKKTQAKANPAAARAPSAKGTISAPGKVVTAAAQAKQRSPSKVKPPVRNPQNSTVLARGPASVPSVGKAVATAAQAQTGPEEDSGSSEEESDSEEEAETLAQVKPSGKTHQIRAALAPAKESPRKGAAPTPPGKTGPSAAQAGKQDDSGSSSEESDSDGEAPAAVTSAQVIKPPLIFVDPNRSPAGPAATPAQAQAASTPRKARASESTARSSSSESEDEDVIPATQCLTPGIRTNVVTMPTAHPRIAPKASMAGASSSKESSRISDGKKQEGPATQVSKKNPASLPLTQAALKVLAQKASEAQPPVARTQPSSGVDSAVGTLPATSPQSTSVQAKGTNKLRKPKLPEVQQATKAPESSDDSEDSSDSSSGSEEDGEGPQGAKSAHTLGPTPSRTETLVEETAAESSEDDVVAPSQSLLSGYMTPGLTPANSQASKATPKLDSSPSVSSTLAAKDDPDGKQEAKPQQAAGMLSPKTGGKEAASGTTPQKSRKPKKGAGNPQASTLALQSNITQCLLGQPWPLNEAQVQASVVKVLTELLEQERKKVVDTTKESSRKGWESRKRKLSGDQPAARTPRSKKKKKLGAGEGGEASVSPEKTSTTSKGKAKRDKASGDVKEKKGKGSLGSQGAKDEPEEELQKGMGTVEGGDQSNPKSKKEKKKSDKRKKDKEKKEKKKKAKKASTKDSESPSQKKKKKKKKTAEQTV
UniProt Q9BXI6: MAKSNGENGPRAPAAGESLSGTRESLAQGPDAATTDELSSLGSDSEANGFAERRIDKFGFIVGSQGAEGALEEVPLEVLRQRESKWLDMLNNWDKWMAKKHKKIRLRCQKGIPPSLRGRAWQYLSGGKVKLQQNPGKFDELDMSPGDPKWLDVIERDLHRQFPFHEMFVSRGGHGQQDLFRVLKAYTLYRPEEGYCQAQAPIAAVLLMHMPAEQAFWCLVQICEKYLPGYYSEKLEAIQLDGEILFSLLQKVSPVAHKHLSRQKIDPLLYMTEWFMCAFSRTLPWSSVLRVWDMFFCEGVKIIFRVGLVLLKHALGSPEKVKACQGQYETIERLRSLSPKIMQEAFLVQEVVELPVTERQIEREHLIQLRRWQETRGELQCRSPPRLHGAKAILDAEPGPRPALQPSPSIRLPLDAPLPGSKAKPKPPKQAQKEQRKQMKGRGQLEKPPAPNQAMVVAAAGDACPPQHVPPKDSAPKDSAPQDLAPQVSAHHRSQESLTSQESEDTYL
UniProt Q15561, whole entry, looked up: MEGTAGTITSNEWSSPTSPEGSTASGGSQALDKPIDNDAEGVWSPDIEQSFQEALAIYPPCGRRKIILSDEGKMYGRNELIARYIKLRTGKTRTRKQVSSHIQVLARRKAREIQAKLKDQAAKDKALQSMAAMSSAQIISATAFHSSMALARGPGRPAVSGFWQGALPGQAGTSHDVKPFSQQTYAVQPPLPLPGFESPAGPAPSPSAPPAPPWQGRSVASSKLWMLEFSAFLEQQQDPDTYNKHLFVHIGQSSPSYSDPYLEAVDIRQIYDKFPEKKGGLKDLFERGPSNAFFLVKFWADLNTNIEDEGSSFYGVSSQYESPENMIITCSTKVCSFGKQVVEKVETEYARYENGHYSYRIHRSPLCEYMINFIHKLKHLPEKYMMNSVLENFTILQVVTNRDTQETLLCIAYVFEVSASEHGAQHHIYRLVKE

The other results are listed elsewhere or left out.

Compound in the first experiment: NCC(=O)Nc1ccc(-n2nc(C(F)(F)F)cc2-c2ccc3c(ccc4ccccc43)c2)cc1
Briefly: log2 fold change, soluble protein after heating vs DMSO (PISA); higher = thermal stabilisation; K562 lysate, 10 uM; active = over 0.2 and 3.5 SD of the protein, either way, in both replicates (recomputed). The gist of the method: (§1)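 A 30 min treatment with 10 μM compound was applied to crude K562 extract at 1 mg/mL protein in PBS pH 7.4 with 1 mM MgCl2. Heating for 3 min spanned 48°C-58°C, after which aliquots were pooled, adjusted to 0.5% NP-40 at 4°C and spun at 21,000xg for 90 min. TMTpro 16plex LC-MS/MS of the supernatant, with channel sums equalised, gave values recorded as log-two fold change in thermal stability against solvent controls, from duplicates.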
For TERF1 (UniProt P54274), the log2 fold change was inactive: -0.124.
On the same count and under the same terms, the same measure for TDG (UniProt Q13569): inactive: 0; for TARDBP (UniProt K7EN94): inactive: 0.1.
Still for that read-out and setting: the same measure for TCEAL8 (UniProt Q8IYN2): inactive: -0.163.
Still for that read-out and setting: the same measure for TEC (UniProt P42680): active: -1.05; for TBX1 isoform 3 (UniProt O43435): inactive: 0.219.
Regarding TAOK2 (UniProt Q9UL54), the log2 fold change was inactive: 0.015.
For TC2N (UniProt Q8N9U0), the log2 fold change is inactive: 0.005.
Still for that read-out and setting: to TCEAL4 isoform 2 (UniProt Q96EI5) belongs inactive: 0.034.

Compound in a further experiment: O=C(CCCCCCC(=O)Nc1ccccc1)NO [vorinostat]
The description is as above. The gist of the method:
as §1
Regarding TECPR1 isoform 4 (UniProt Q7Z6L1), the log2 fold change was inactive: -0.093.
Same read-out and setting: to TCF20 (UniProt Q9UGU0) belongs inactive: -0.067.
Take TCN1 (UniProt P20061): the log2 fold change was inactive: -0.141.
Turning to TBXA2R (UniProt P21731), the log2 fold change was inactive: 0.388.
The same measure, in the same setting: the same measure for TCOF1 isoform 6 (UniProt Q13428): inactive: 0.15; for TEAD3 (UniProt Q99594): inactive: -0.106; for TBC1D10A (UniProt Q9BXI6): inactive: -0.191.
Same read-out and setting: the same measure for TANC2 isoform 2 (UniProt Q9HCD6): inactive: -0.555.
Still for that read-out and setting: to TENT4B isoform 5 (UniProt Q8NDF8) belongs inactive: -0.023.
Regarding TET2 (UniProt Q6N021), the log2 fold change is inactive: -0.036.
The same measure, in the same setting: to TEDC1 (UniProt Q86SX3) belongs active: -0.356; to TEAD4 (UniProt Q15561), inactive: -0.058; to TFPT (UniProt P0C1Z6), inactive: 0.289.
In the case of TAZ (UniProt Q16635), the log2 fold change was inactive: 0.373.
